Measurements taken from paper PMC2737711 (The Journal of neuroscience : the official journal of the …, 2009).

Target: T1, C. elegans KCC-2 (Caenorhabditis elegans, UniProt G5EEC9)
T1 sequence (G5EEC9 1-1079): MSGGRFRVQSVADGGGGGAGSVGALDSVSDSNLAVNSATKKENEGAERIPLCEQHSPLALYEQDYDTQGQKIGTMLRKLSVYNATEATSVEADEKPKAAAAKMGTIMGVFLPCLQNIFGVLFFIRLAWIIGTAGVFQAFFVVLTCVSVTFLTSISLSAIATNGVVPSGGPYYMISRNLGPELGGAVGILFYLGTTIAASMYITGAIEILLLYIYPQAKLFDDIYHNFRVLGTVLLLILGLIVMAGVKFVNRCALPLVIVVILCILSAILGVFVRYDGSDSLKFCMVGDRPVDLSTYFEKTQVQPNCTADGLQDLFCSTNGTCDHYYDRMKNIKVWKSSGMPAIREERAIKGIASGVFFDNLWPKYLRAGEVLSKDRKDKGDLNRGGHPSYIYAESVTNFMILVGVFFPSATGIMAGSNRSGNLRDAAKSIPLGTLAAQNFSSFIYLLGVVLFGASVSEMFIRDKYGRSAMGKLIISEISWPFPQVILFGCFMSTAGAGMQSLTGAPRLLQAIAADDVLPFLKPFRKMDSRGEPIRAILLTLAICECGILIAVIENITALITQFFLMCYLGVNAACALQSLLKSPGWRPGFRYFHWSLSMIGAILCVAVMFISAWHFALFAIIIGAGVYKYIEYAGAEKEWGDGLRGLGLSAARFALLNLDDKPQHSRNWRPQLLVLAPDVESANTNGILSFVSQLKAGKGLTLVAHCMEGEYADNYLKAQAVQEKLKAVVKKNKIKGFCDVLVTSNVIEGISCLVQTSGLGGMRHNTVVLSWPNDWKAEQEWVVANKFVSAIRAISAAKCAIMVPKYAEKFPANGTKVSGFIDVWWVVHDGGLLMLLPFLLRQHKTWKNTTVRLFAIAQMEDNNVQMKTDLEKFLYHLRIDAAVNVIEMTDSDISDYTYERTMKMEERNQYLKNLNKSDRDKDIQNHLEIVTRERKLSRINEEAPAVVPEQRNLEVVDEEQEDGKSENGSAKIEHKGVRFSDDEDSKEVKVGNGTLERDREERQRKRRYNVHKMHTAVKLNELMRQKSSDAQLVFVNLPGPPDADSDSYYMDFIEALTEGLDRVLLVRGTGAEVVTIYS
Test: […] influx into Xenopus oocytes
Type: cell-based

IC50: 21 ± 4 µM
Structure (SMILES): NS(=O)(=O)c1cc(C(=O)O)c(NCc2ccco2)cc1Cl [furosemide]
